Consider 2 substances from paper PMC3814058.

For experiment [1], the target named is GFP–STIM2K (GFP fused to residues 720–746 of human STIM2, K-rich domain), reduced monomer (human) (UniProt Q9P246). Briefly: reducing SDS/PAGE; as a2 but separated under reducing conditions (DTT); both purified.
Another experiment has as its target GFP–STIM2K–C725A (human) (UniProt Q9P246). Briefly: non-reducing SDS/PAGE; overnight dialysis at 4°C against non-reducing (DTT-free) HK buffer, non-reducing sample buffer, 65°C 5 min, Coomassie stain; disulphide-linked dimer; both purified.

No constants are given. Whether binding was seen depends on the method and setting.

As to “GFP–STIM2K (GFP fused to residues 720–746 of human STIM2, K-rich domain), reduced monomer (from UniProt Q9P246-1 720-746) (domain or fragment)”, the binding result in experiment [1] is reported as “no binding (condition: under reducing conditions (DTT))”.
For “GFP–STIM2K–C725A (from UniProt Q9P246-1 720-746) (domain or fragment)”, in the experiment with GFP–STIM2K–C725A (human), the binding entry is “no binding”.
